# Laboratory results as given in the supplement of paper PMC12819154, “High-throughput peptide-centric local stability assay extends protein–ligand identification to membrane proteins, tissues and bacteria” (Nature Structural & Molecular Biology, 2025).
# Amino acid sequences for entries named in this document (tags omitted). A change or cut given only in a name is not applied to a line headed by its entry.
# UniProt P97355: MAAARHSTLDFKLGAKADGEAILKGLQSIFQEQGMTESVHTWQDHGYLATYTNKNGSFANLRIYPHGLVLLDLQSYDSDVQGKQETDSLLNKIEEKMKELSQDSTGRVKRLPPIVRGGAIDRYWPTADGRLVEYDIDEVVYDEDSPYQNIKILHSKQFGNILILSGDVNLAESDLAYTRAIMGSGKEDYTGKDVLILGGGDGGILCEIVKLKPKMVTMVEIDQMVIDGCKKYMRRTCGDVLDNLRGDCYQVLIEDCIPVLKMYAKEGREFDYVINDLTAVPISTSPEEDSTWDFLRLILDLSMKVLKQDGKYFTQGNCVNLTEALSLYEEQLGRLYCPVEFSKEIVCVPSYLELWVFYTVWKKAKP
# UniProt P70452: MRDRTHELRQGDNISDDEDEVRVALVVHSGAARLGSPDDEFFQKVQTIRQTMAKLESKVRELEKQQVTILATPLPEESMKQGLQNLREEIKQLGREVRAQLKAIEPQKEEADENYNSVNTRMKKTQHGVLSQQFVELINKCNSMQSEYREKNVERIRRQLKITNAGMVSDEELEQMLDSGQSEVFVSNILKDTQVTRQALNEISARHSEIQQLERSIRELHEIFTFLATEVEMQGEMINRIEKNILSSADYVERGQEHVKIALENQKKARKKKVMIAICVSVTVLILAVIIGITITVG
# UniProt P97430: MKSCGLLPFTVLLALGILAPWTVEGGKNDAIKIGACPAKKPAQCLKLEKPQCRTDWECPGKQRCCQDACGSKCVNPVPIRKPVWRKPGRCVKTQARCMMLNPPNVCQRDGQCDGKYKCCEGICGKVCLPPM
# UniProt P63254: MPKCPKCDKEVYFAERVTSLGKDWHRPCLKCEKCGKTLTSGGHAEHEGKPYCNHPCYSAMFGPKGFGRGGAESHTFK
# UniProt P58389: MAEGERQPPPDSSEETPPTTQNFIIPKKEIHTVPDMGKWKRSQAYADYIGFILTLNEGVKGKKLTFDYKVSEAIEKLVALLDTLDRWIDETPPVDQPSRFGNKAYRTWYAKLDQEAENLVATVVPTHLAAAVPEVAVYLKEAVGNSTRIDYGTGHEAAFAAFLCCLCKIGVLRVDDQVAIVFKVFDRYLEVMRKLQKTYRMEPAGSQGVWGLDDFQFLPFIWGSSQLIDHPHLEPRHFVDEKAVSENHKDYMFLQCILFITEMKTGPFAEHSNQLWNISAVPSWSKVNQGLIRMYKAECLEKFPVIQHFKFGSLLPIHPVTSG
# UniProt P60670: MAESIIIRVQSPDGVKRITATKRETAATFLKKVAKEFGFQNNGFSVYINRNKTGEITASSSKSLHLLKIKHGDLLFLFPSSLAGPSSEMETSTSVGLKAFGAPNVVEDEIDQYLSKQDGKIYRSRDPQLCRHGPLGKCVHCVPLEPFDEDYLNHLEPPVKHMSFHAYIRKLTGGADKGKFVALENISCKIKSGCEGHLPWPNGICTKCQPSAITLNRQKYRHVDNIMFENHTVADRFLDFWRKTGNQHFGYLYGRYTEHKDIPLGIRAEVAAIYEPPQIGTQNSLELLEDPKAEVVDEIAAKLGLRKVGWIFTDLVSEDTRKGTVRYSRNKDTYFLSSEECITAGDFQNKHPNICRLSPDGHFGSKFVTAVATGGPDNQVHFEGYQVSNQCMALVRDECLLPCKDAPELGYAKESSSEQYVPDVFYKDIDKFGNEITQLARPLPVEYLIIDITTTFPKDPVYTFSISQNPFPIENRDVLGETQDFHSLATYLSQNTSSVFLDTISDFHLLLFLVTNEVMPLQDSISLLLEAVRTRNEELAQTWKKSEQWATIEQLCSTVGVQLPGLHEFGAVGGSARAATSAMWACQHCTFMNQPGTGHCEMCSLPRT
# UniProt P97300: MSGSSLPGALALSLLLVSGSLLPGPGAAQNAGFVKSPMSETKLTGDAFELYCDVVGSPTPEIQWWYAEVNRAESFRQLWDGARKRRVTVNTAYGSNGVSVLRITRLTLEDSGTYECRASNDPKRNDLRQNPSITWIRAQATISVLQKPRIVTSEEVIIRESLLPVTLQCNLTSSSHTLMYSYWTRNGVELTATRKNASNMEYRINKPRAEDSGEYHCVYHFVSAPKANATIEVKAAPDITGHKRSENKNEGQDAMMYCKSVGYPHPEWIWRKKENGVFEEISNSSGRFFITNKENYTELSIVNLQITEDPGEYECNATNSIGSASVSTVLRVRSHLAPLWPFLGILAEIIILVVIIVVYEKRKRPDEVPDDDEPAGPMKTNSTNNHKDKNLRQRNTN
# UniProt P62077: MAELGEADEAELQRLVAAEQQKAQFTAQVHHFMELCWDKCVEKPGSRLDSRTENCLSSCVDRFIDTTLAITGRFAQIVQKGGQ
# UniProt P58929: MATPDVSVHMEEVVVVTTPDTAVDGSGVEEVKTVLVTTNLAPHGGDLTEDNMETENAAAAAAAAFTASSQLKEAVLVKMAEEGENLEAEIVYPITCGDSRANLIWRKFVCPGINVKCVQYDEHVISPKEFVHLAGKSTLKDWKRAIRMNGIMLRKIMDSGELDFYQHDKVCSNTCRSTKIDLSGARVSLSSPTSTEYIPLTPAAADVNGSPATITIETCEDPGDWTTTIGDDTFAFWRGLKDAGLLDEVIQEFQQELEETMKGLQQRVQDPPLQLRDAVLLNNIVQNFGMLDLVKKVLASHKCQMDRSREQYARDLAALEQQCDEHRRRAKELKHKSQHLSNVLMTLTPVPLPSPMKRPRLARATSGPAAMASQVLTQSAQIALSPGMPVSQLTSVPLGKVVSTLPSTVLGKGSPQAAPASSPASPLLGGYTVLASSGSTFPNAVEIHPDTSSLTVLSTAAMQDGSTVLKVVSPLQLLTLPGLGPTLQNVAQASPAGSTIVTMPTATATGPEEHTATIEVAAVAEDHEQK
# UniProt P58466: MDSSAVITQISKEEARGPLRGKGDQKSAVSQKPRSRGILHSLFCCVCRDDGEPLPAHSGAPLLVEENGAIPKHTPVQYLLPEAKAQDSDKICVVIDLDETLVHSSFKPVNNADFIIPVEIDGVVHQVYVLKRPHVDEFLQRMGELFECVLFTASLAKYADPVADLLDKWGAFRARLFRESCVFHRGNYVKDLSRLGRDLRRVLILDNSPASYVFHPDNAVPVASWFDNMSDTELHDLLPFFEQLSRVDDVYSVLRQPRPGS
# UniProt P57784: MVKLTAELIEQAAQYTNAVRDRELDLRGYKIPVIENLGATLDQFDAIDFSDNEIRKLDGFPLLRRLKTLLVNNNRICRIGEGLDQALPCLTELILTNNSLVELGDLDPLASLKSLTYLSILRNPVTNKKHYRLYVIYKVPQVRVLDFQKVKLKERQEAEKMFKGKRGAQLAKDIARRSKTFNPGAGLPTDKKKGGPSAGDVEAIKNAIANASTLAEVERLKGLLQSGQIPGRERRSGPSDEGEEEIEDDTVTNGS
# UniProt P70168, whole entry: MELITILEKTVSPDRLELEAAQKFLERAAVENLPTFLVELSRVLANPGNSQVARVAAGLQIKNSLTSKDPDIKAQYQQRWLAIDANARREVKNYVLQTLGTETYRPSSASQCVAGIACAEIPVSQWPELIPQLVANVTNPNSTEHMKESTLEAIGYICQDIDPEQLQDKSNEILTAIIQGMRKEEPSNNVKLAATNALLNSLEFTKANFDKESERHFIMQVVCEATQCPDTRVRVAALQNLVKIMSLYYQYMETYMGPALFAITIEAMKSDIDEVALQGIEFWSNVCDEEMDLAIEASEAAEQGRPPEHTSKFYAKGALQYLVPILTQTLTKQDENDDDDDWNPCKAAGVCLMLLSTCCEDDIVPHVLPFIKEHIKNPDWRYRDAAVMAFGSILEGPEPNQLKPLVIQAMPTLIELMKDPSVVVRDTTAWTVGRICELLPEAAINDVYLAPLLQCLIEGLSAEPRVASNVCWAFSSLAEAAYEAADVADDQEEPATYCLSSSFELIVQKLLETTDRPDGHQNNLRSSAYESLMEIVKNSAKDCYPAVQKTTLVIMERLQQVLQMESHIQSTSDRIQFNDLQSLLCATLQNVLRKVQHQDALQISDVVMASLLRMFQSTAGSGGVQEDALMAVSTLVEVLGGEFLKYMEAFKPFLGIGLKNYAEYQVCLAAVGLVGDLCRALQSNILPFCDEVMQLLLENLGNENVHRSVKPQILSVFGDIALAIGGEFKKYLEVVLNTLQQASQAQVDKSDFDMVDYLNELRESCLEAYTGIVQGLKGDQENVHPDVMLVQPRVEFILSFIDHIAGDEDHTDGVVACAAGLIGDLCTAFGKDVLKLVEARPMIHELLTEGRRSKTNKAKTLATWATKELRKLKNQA
# UniProt P61759, whole entry: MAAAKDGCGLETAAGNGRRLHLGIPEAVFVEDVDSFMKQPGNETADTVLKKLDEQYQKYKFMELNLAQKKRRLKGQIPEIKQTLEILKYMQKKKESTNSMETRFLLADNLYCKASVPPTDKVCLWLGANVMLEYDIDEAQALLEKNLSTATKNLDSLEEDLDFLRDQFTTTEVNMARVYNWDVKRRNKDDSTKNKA
# UniProt P97471: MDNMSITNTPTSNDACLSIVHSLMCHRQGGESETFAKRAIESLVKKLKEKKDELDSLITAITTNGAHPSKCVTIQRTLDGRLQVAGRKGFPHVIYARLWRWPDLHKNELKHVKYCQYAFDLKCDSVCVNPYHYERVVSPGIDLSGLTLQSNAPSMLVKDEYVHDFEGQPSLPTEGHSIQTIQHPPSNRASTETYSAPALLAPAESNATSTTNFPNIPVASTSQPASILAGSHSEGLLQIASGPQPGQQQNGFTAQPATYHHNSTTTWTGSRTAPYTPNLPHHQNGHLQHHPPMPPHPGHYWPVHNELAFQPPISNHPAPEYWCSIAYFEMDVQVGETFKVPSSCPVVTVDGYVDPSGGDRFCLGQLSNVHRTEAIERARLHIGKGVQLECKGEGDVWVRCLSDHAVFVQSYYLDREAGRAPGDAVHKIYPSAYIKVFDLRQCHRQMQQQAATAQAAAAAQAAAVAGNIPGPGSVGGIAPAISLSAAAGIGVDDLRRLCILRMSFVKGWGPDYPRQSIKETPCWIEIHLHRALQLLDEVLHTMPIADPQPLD
# UniProt P70353: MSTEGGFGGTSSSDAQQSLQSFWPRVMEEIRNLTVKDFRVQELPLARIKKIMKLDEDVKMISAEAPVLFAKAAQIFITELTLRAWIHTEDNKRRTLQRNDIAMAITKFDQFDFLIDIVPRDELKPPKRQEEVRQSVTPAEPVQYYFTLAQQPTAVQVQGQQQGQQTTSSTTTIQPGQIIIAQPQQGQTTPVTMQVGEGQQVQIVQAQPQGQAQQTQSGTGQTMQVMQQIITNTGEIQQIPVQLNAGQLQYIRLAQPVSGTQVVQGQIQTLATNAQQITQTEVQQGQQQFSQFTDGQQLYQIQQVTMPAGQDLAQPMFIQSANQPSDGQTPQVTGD
# UniProt P70255, whole entry: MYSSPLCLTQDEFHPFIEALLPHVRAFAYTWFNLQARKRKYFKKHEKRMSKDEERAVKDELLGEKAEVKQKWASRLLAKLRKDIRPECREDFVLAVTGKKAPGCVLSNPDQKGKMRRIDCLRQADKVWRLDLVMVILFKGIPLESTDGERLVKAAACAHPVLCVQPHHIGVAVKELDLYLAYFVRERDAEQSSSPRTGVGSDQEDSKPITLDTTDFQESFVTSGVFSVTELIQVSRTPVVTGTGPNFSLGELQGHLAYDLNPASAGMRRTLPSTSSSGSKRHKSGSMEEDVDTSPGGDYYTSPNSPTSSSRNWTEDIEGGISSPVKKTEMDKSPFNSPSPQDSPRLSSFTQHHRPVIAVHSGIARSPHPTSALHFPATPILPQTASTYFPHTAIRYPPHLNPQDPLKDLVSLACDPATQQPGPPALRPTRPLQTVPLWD
# UniProt P70460: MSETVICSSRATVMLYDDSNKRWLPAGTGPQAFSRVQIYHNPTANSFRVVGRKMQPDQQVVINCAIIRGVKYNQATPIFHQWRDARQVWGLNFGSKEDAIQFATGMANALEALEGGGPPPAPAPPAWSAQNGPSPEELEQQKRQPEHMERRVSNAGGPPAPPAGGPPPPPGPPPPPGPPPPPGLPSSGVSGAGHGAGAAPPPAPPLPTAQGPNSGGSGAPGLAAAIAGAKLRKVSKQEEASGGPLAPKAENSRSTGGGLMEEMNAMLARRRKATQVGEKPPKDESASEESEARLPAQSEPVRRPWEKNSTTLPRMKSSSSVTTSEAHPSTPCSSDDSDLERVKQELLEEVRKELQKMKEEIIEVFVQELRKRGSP
# UniProt P70245: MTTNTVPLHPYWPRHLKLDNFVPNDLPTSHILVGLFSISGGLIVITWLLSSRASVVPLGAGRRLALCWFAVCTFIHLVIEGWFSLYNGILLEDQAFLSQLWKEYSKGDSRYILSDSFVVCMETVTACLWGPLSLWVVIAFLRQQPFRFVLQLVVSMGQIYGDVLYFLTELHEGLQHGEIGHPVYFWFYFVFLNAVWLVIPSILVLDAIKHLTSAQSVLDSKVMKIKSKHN
# UniProt P63321: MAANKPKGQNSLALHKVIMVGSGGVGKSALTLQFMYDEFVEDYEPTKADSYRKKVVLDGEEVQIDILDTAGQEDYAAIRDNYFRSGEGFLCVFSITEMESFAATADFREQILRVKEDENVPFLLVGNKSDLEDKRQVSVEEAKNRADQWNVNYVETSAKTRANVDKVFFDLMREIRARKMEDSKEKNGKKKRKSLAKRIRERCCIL
# Some of the results follow. Most values lie at the level of the controls, where differences are scatter.
# Compound: CN[C@@H]1C[C@H]2O[C@@](C)([C@@H]1OC)n1c3ccccc3c3c4c(c5c6ccccc6n2c5c31)C(=O)NC4 [staurosporine]
# Assay: log2 fold change of pooled soluble protein (PISA), ligand vs vehicle (log2 ratio); higher = more thermally stabilized
# Settings: ligand concentration: 20 uM; assay format: PISA pool 52.9/55.5/58.6 C
row,Target,log2 fold change of pooled soluble protein
1,UniProt P56959,-0.071
2,UniProt P97501,-0.037
3,UniProt P58021,-0.343
4,P61205;P84078;Q8BSL7,0.266
5,UniProt P97355,-0.0914
6,UniProt P70694,-0.102
7,UniProt P97348,-0.119
8,UniProt P58871,0.0303
9,UniProt P70399,-0.0608
10,UniProt P70452,-0.134
11,UniProt P70387,-0.078
12,UniProt P58058,-0.053
13,UniProt P97430,0.105
14,UniProt P63254,0.165
15,UniProt P58389,-0.522
16,UniProt P60670,-0.0142
17,UniProt P97494,-0.0839
18,UniProt P97300,0.304
19,UniProt P62077,0.0938

# An excerpt of these results, with tabs:
row	Target	log2 fold change of pooled soluble protein
1	UniProt P56959	-0.071
9	UniProt P70399	-0.0608
11	UniProt P70387	-0.078

# Next entries.

row,Target,log2 fold change of pooled soluble protein
1,UniProt P58929,-0.289
2,UniProt P58466,0.148
3,UniProt P97789,0.0538
4,UniProt P97478,-0.114
5,UniProt P57784,-0.0433
6,UniProt P70168,0.0896
7,UniProt P61759,-0.0794
8,UniProt P70389,0.154
9,UniProt P97499,-0.0364
10,UniProt P97471,0.034
11,UniProt P70353,-0.202
12,UniProt P57016,-0.0262
13,UniProt P70255,-0.00138
14,UniProt P70460,-0.122
15,UniProt P70245,0.293
16,UniProt P58771,-0.0853
17,UniProt P59672,-0.00169
18,UniProt P63321,-0.0556
